Test results: article doi:10.1101/2023.03.30.534876

Biological target: T1, PPE51-myc expressed in M. smegmatis (pJEX55-PPE51) (M. tuberculosis) (UniProt P9WHY3)
T1 sequence: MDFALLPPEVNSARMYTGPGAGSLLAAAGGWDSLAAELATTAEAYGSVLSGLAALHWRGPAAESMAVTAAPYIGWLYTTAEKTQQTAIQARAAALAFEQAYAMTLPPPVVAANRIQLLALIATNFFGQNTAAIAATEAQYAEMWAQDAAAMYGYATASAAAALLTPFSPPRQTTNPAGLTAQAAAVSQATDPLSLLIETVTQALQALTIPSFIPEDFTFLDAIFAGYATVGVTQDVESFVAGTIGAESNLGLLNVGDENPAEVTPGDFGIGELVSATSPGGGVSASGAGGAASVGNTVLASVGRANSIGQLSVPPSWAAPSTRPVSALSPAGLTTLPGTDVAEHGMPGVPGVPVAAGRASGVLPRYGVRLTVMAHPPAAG
Assay: co-IP

“PPE50-6xHis expressed in M. smegmatis (pSCW54-PPE50)” was tested. Which binding did it give?
Its binding is “binds”.

These are yes or no findings as the source states them, for the method shown. In cells and extracts the contact can be indirect. Binding can be weak; no strength is given. Where a sequence is shown, tags or fusion partners need not be part of it.
